# Source: PubChem BioAssay AID686938 (Drosophila RNAi Screening Center, 2013)
# Purpose: 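Knock-downs reducing store-operated calcium influx in Drosophila cells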 (primary screen)
# Cell system: Drosophila S2R+ cells
# Reagents: long dsRNA against Drosophila genes, about 0.25 µg dsRNA per well, roughly 10,000 cells
# Time to read-out: 5 days of knock-down before the calcium assay
# Treatment: thapsigargin (SERCA pump blocker) to empty calcium stores; entry signal taken 4 min after adding it
# Detection: 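Per-well fluo-4 fluorescence in two replicates, unnormalised, measured in resting cells and 4 min after store depletion by the SERCA blocker thapsigargin; ratio of the two present in few wells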
# Reading the numbers: calcium entry signal: higher = stronger calcium signal after store depletion; entry to resting ratio: higher = more calcium entry relative to resting level; resting calcium signal: higher = higher resting calcium signal
# Rule for the call: 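Called when the plate z-score of the entry-to-rest ratio, mean of duplicates, falls below −3; wells with low overall dye signal (Fmax z below −2) or more than five off-targets excluded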
# Meaning of the calls: active = strongly reduced calcium entry; inactive = no strong reduction
# The deposit covers about 23,000 reagents; this is an unselected part of those with a known target gene and a result. Over the whole deposit, 75 (0.33%) got an active call. 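Raw plate signals without normalisation; calls rest on plate z-scores that were not deposited; ratio present for only 364 wells.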 A plus sign joins genes that one reagent is predicted to hit. Not given: the dose of the treatment.
The first 4 entries, ahead of the listing:
gene knocked down,amplicon,"calcium entry signal, replicate 1 (fluorescence units)","calcium entry signal, replicate 2 (fluorescence units)",entry to resting ratio,"resting calcium signal, replicate 1 (fluorescence units)","resting calcium signal, replicate 2 (fluorescence units)",call
Dok (GeneID 31667),DRSC18204,3.61e7,4.04e7,,1.75e7,1.82e7,inactive
Ir31a (GeneID 318912),DRSC22358,3.62e7,5.45e7,,1.75e7,2.89e7,inactive
CG13771 (GeneID 33933),DRSC02277,2.50e7,2.93e7,,1.32e7,1.40e7,inactive
COX7C (GeneID 50246),DRSC06831,4.71e7,3.67e7,,2.08e7,1.76e7,inactive

The list itself, from the first entry:
gene knocked down,amplicon,"calcium entry signal, replicate 1 (fluorescence units)","calcium entry signal, replicate 2 (fluorescence units)",entry to resting ratio,"resting calcium signal, replicate 1 (fluorescence units)","resting calcium signal, replicate 2 (fluorescence units)",call
Dok (GeneID 31667),DRSC18204,3.61e7,4.04e7,,1.75e7,1.82e7,inactive
Ir31a (GeneID 318912),DRSC22358,3.62e7,5.45e7,,1.75e7,2.89e7,inactive
CG13771 (GeneID 33933),DRSC02277,2.50e7,2.93e7,,1.32e7,1.40e7,inactive
COX7C (GeneID 50246),DRSC06831,4.71e7,3.67e7,,2.08e7,1.76e7,inactive
ImpE2 (GeneID 38432),DRSC08665,4.42e7,3.66e7,,2.84e7,1.59e7,inactive
pnt (GeneID 42757),DRSC17028,3.29e7,4.07e7,,2.27e7,2.29e7,inactive
pnt (GeneID 42757),DRSC23204,2.97e7,3.76e7,,1.76e7,2.24e7,inactive
PPO2 (GeneID 35910),DRSC07102,5.59e7,3.71e7,,2.44e7,1.80e7,inactive
Ugt302C1 (GeneID 53510),DRSC15353,4.40e7,4.41e7,,1.81e7,2.07e7,inactive
rtet (GeneID 42500),DRSC14160,4.07e7,4.11e7,,1.82e7,1.75e7,inactive
CG15185 (GeneID 40798),DRSC12565,4.22e7,3.62e7,,2.03e7,1.69e7,inactive
CG2906 (GeneID 35753),DRSC06841,3.29e7,3.33e7,,1.49e7,1.37e7,inactive
Vps13 (GeneID 35693),DRSC06817,4.36e7,4.12e7,,2.07e7,1.97e7,inactive
CG11251 (GeneID 39490),DRSC09825,2.50e7,3.74e7,,1.26e7,1.42e7,inactive
CG10597 (GeneID 32714),DRSC19357,3.34e7,4.25e7,,1.79e7,1.90e7,inactive
Pglym87 (GeneID 46246),DRSC15252,4.01e7,5.06e7,,1.81e7,2.32e7,inactive
ttm2 (GeneID 38049),DRSC08268,4.18e7,5.18e7,,2.09e7,2.16e7,inactive
LRR (GeneID 35715),DRSC06444,3.96e7,4.68e7,,2.00e7,2.40e7,inactive
Droj2 (GeneID 41646),DRSC16450,3.11e7,3.59e7,,1.43e7,1.74e7,inactive
CG30083 (GeneID 246444),DRSC05572,5.23e7,5.01e7,,2.44e7,2.24e7,inactive
CG6621 (GeneID 41319),DRSC16076,4.35e7,4.06e7,,1.95e7,1.59e7,inactive
Upf2 (GeneID 31724),DRSC18218,3.09e7,3.79e7,,1.35e7,1.92e7,inactive
PVRAP (GeneID 38677),DRSC09966,1.81e7,3.04e7,,9.21e6,1.20e7,inactive
PVRAP (GeneID 38677),DRSC10577,1.66e7,2.85e7,,8.09e6,1.30e7,inactive
CG15625 (GeneID 33694),DRSC00460,3.05e7,3.75e7,,1.58e7,1.72e7,inactive
pico (GeneID 33003),DRSC19430,5.26e7,3.94e7,,2.29e7,1.48e7,inactive
Impbeta11 + asRNA:CR43429,DRSC07525,4.34e7,3.75e7,,2.24e7,1.66e7,inactive
cal1 (GeneID 42065),DRSC15725,3.68e7,3.46e7,,2.14e7,1.82e7,inactive
CG33137 (GeneID 36449),DRSC22131,1.84e7,3.08e7,,9.86e6,1.66e7,inactive
nSMase (GeneID 38396),DRSC08237,3.58e7,2.75e7,,2.50e7,1.33e7,inactive
Elal (GeneID 42970),DRSC16662,4.00e7,3.47e7,,1.77e7,1.48e7,inactive
CG5989 (GeneID 38984),DRSC10565,4.97e7,2.81e7,,3.11e7,1.24e7,inactive
Sas-4 (GeneID 40859),DRSC12505,4.53e7,4.47e7,,2.34e7,2.14e7,inactive
CG6294 + CG6299 + CG15642,DRSC19981,2.46e7,3.24e7,,1.40e7,1.50e7,inactive
CG1371 (GeneID 36053),DRSC06409,4.07e7,3.53e7,,1.65e7,1.55e7,inactive
CG12374 (GeneID 36410),DRSC06143,3.85e7,3.68e7,,1.95e7,1.72e7,inactive
CG3655 (GeneID 31056),DRSC17676,2.68e7,3.29e7,,1.32e7,1.34e7,inactive
CG3655 (GeneID 31056),DRSC18181,4.45e7,7.16e7,2,2.24e7,2.57e7,inactive
CG3655 (GeneID 31056),DRSC18477,4.05e7,5.82e7,2,2.05e7,2.45e7,inactive
CG3655 (GeneID 31056),DRSC22688,2.42e7,3.53e7,,1.24e7,1.50e7,inactive
rgn (GeneID 40368),DRSC11609,3.43e7,3.30e7,,1.64e7,2.43e7,inactive
TwdlY (GeneID 318093),DRSC19153,3.72e7,2.12e7,,1.92e7,1.05e7,inactive
Ubc10 (GeneID 37035),DRSC07568,3.71e7,4.19e7,,1.48e7,1.99e7,inactive
Edg84A (GeneID 40818),DRSC12594,3.92e7,2.92e7,,1.81e7,1.45e7,inactive
CG7582 (GeneID 43492),DRSC16261,3.28e7,3.95e7,,1.61e7,1.69e7,inactive
Jhbp4 (GeneID 41948),DRSC14222,3.43e7,5.37e7,,1.74e7,6.58e7,inactive
CG31029 (GeneID 318562),DRSC15422,3.33e7,5.44e7,,1.61e7,2.30e7,inactive
CG32845 (GeneID 318243),DRSC07867,2.86e7,4.14e7,,1.47e7,1.77e7,inactive
CG3168 (GeneID 31612),DRSC18287,3.44e7,3.67e7,,1.52e7,1.60e7,inactive
CG11700 (GeneID 31564),DRSC17794,1.72e7,9.32e6,,1.57e7,8.79e6,inactive
mus302 (GeneID 39874),DRSC09905,4.15e7,7.46e7,,2.02e7,2.74e7,inactive
CG1690 (GeneID 36004),DRSC06636,3.91e7,5.28e7,,1.88e7,2.04e7,inactive
Ipk1 (GeneID 37360),DRSC04235,3.51e7,,,1.68e7,,inactive
Ipk1 (GeneID 37360),DRSC04236,4.41e7,5.21e7,,2.12e7,2.32e7,inactive
Ipk1 (GeneID 37360),DRSC04237,4.08e7,4.88e7,,1.98e7,2.22e7,inactive
CG31301 (GeneID 41865),DRSC22164,3.06e7,3.88e7,,1.43e7,1.87e7,inactive
CG3328 (GeneID 37871),DRSC04357,4.06e7,,,2.01e7,,inactive
CG7730 (GeneID 39908),DRSC10909,3.09e7,4.13e7,,1.42e7,2.78e7,inactive
